Test results taken from paper PMC11969663.
These are yes or no findings as the source states them, for the method shown. Binding seen in cells or lysates may run through a third protein. A yes stands for co-enrichment or nearness to the bait. Other partners may have been found.

Biological target: 6×His-tagged RID (N. crassa)
Experiment: affinity purification with mass spectrometry; 6×His-tagged RID from the native locus; sexual asci lysed in 50 mM HEPES pH 7.4, 137 mM NaCl, 10% glycerol with protease inhibitors; Ni-NTA Sefinose Resin, imidazole elution, SDS-PAGE, Coomassie, mass spectrometry

binding: binds
B1: HDA-2 (enzyme, UniProt Q7SEL7 1-499)
chain: MDTLQSLQWRPPKPNYLPHDIDVDEPIVDVYKPPIPMDKASDRENQEYYAHMKRMAHEYNITRPKGYTVSYHFNPDMEPHHFGLTHPMKPFRLTLTKSLVTAYGMNFAMDNYNTRIATYEELNSFHTSDYLDYLHMAPPEEMPRDIDNPDKEVKFNLGGSDCPLFHGLYDYCSMSAGSSLDAARKICNKQSDIAIAWGGGLHHAKKSEASGFCYINDIVIAILQLLRCYPRVLYIDIDVHHGDGVEEAFHSTDRVLTCSFHKFAPEVFFPGTGGLDDNGPKSEHNPGAHHAINVPLNDGITDEQYGHLFQSVIGKINEKFRPSVIALQCGADSLAGDRLGRFNLQVQGHGACAKFCKTFGIPMIMFGGGGYTPRNVARAWAYETSVAIDVDEKINKIIPDHTPWRKHFVQEELFPSLEQILGEPRANRNSQKRLQEIIQHVHEQLRFVNAAPSVQQQVIPPDLGGIRDDVEDRLKEESEERDEGLRRDREEGLGISGEF
